Measured values taken from doi:10.1101/2021.09.29.461190.

Target: NET4B with C-terminal deletion including the IRQ domain, yeast two-hybrid fusion (Arabidopsis thaliana)
Experiment: two-hybrid

binding: no binding
B1: CA-RABG3a (Q67L), yeast two-hybrid fusion (protein, UniProt Q948K8 1-206)
chain: MATRRRTLLKVIVLGDSGVGKTSLMNQYVHKKFSMQYKATIGADFVTKELQIGEKLVTLQIWDTAGLERFQSLGAAFYRGADCCALVYDVNVLRSFDNLETWHEEFLKQASPSDPKTFPFIVLGNKIDVDGGSSRVVSDKKAADWCASNGNIPYFETSAKDDFNVDEAFLTIAKTALANEHEQDIYFQGIPDAVTENEPKGGGCAC

These are yes or no findings as the source states them, for the method shown. Where a sequence is shown, tags or fusion partners need not be part of it.
